Results deposited as PubChem BioAssay AID1259308 (NCATS, 2017)

Purpose: 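Knock-downs that increase output of a recombinant reporter protein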 (primary screen)
System: human HEK293 embryonic kidney cells stably expressing firefly luciferase (HEK-CMV-Luc2-Hygro)
Reagent: single siRNA against human genes, 0.8 pmol siRNA per well
Timing: 72 h
Detection: 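Reporter luminescence and viable-cell signal on separate replicate plates, given as percent of non-targeting control and median/MAD z-scores, plus per-cell luciferase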
Scale: total luciferase, z-score and total luciferase, % of control: higher = more reporter protein produced
Active means: 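Active when the median/MAD z-score for overall luciferase is greater than 3; a gene was taken forward for validation with new siRNAs if at least two of its three siRNAs passed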
Meaning of the calls: active = raised luciferase; inactive = no rise
Shown is a random part of about 59,000 reagents. Over the whole deposit, about 1,510 (2.6%) are marked active. 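Calls use total luciferase alone and ignore viability, so some active siRNAs may act by altering cell number.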 Reagents against one gene are numbered here. Not all columns of the deposit are shown.

With knock-down of DNAH2 (dynein axonemal heavy chain 2) #1, the record shows total luciferase, z-score 0.399; total luciferase, % of control 89.8; inactive.
Against DNAH2 (dynein axonemal heavy chain 2) #2 the deposit lists total luciferase, z-score 2.85; total luciferase, % of control 139; inactive.
After knock-down of DNAH2 (dynein axonemal heavy chain 2) #3, the record shows total luciferase, z-score -0.307; total luciferase, % of control 75.8; inactive.
Silencing of TUT1 (terminal uridylyl transferase 1, U6 snRNA-specific) #1 gave: total luciferase, z-score -1.24; total luciferase, % of control 57.2; inactive.
TUT1 (terminal uridylyl transferase 1, U6 snRNA-specific) #2 scored total luciferase, z-score 1.1; total luciferase, % of control 104; inactive.
Depletion of TUT1 (terminal uridylyl transferase 1, U6 snRNA-specific) #3 resulted in: total luciferase, z-score 3.3; total luciferase, % of control 148; active.

A stretch of the results above, as a working copy:
DNAH2 (dynein axonemal heavy chain 2) #1: total luciferase, z-score = 0.399; total luciferase, % of control = 89.8; Outcome = inactive
DNAH2 (dynein axonemal heavy chain 2) #2: total luciferase, z-score = 2.85; total luciferase, % of control = 139; Outcome = inactive

Next results:
Knock-down of SLC26A1 #1 came out at: total luciferase, z-score -0.31; total luciferase, % of control 75.7; inactive.
Against SLC26A1 #2, the entry reads total luciferase, z-score 0.124; total luciferase, % of control 84.4; inactive.
Depletion of SLC26A1 #3 resulted in: total luciferase, z-score 0.0985; total luciferase, % of control 83.8; inactive.
Silencing of BIRC8 (baculoviral IAP repeat containing 8) #1 resulted in: total luciferase, z-score 0.0656; total luciferase, % of control 83.2; inactive.
Against BIRC8 (baculoviral IAP repeat containing 8) #2, the values are total luciferase, z-score -0.536; total luciferase, % of control 71.2; inactive.
After knock-down of BIRC8 (baculoviral IAP repeat containing 8) #3, the screen gave total luciferase, z-score 2.39; total luciferase, % of control 129; inactive.
